Test results as given in publication doi:10.1101/2024.09.12.612644.
Positions count from the first letter of the chain named. These are yes or no findings as the source states them, for the method shown. For some of these results: In cells and extracts the contact can be indirect. Some binding calls cover weakened binding; strength is not graded here. For some of these results: Tags and fused reporters may be left off the sequences shown.

Amino acid sequences for entries named in this document (tags omitted).
UniProt Q03330: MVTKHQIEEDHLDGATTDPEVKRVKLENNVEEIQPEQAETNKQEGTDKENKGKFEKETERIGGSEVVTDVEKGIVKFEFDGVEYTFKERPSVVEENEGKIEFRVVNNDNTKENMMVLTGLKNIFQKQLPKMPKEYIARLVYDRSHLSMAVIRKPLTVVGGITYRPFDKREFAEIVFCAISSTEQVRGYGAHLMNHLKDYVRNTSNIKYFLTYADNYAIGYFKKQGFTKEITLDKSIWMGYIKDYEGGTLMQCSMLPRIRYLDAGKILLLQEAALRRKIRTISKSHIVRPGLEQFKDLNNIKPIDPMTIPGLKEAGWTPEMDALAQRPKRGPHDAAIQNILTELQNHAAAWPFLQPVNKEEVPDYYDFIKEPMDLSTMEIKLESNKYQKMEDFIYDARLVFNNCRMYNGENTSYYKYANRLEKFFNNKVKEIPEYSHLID

T1: Mip6-TAP (S. cerevisiae) (UniProt P38760)
T1 sequence: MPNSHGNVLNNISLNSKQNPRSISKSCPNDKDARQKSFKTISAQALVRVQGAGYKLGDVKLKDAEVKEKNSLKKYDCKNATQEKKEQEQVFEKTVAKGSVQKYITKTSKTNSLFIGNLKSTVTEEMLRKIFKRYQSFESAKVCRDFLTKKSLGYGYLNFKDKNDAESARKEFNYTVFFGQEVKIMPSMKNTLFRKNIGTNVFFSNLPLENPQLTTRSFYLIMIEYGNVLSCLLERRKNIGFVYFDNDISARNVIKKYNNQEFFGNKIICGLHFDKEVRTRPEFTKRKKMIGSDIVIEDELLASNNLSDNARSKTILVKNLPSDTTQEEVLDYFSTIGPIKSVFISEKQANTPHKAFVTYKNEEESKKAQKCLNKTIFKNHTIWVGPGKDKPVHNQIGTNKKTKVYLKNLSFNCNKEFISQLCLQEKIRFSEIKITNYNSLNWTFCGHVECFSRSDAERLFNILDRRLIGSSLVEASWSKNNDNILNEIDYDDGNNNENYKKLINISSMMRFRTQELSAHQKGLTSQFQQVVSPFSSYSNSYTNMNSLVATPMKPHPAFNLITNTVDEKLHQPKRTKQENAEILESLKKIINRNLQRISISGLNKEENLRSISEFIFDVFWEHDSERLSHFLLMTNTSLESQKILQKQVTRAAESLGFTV

T2: Mip6-GFP (S. cerevisiae) (UniProt P38760)
T2 sequence: T1 sequence

T3: Mip6W442A-GFP (S. cerevisiae) (UniProt P38760)
T3 sequence: T1 sequence with W442A

B1: Rpd3-TAP (enzyme, UniProt P32561 1-433)
chain: MVYEATPFDPITVKPSDKRRVAYFYDADVGNYAYGAGHPMKPHRIRMAHSLIMNYGLYKKMEIYRAKPATKQEMCQFHTDEYIDFLSRVTPDNLEMFKRESVKFNVGDDCPVFDGLYEYCSISGGGSMEGAARLNRGKCDVAVNYAGGLHHAKKSEASGFCYLNDIVLGIIELLRYHPRVLYIDIDVHHGDGVEEAFYTTDRVMTCSFHKYGEFFPGTGELRDIGVGAGKNYAVNVPLRDGIDDATYRSVFEPVIKKIMEWYQPSAVVLQCGGDSLSGDRLGCFNLSMEGHANCVNYVKSFGIPMMVVGGGGYTMRNVARTWCFETGLLNNVVLDKDLPYNEYYEYYGPDYKLSVRPSNMFNVNTPEYLDKVMTNIFANLENTKYAPSVQLNHTPRDAEDLGDVEEDSAEAKDTKGGSQYARDLHVEHDNEFY
B2: Rpd3 (enzyme, UniProt P32561 1-433)
chain: B1 chain

Key:
Mip6-TAP (S. cerevisiae) = target: T1, Mip6-TAP (S. cerevisiae); assay: tandem affinity purification
Mip6-GFP (S. cerevisiae) = target: T2, Mip6-GFP (S. cerevisiae); assay: co-IP
[1] = target: T3, Mip6W442A-GFP (S. cerevisiae); assay: co-IP

binding (Mip6-TAP (S. cerevisiae))	binding (Mip6-GFP (S. cerevisiae))	binding [1]	Molecule
binds	–	–	Gcn5 (from UniProt Q03330 1-439) (enzyme)
–	binds	binds	B1
binds	–	–	B2
